Test [1] is described as follows: qHTS assay for small molecule antagonists of androgen receptor signaling (AID 588516). The following applies: AR-UAS-bla HEK293, beta-lactamase ratio, antagonist mode, 16 h. A digest of the protocol: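 Cells were plated and incubated 5 h, compounds added in titration, then R1881 (10 nM final) as agonist. After 16 h at 37 C, CCF4 substrate was loaded for 2 h at room temperature and fluorescence measured.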
A general note: qHTS replaces the single test concentration by a dilution series.

A short description of test [2]: qHTS assay for small molecule antagonists of vitamin D receptor signaling (AID 588541). The following applies: HEK293T VDR-UAS-bla, beta-lactamase ratio, antagonist mode; measured here: W460 blue channel (cell viability).
Test [3] can be described thus: qHTS assay for small molecule antagonists of retinoid X receptor alpha signaling (AID 588546).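 Further: cells stimulated with 9-cis-retinoic acid as agonist; on the % scale 0 is the no-effect control and ±100 the full control effect.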 The following applies: HEK293T RXRa-UAS-bla, beta-lactamase ratio, antagonist mode; measured here: W530 green channel, cytotoxicity proxy. A digest of the protocol: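 Beta-lactamase reporter inhibition, read as CCF4 fluorescence ratio (ex 405, em 460/530 nm) after 2 h at RT. HEK293T UAS-bla cells, 2500/well, were stimulated with 9-cis-RA at 500 or 100 nM final alongside test compound for 18 h at 37 C.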

The nature of test [4]: qHTS assay for small molecule antagonists of peroxisome proliferator-activated receptor delta signaling (AID 588535).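 Further: cells co-treated with a PPAR-delta agonist as stimulator during compound exposure.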 To be noted: HEK293T PPARd-UAS-bla, beta-lactamase FRET ratio, 18 h; 460 nm channel. A digest of the protocol: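 Cell-based beta-lactamase assay in antagonist mode: 4000 HEK293T PPAR-delta-UAS-bla cells per well, 5 hr preincubation then 18 hr compound incubation at 37 C. IC50 obtained by Hill equation fitting.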

Test [5] can be described thus: qHTS assay for small molecule antagonists of peroxisome proliferator-activated receptor gamma signaling (AID 588537). To be noted: HEK293 PPARg-UAS-bla, beta-lactamase ratio, antagonist mode; measured here: W460 blue channel. The essentials:
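Inhibitors of agonist-stimulated UAS-bla reporter activity were sought in HEK293 cells; rosiglitazone (50 nM) defined full signal and DMSO baseline. Curves fitted to Hill model gave IC50 and efficacy.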

A short description of test [6]: qHTS assay for small molecule agonists of retinoid X receptor alpha signaling (AID 588544). To be noted: HEK293T RXRa-UAS-bla, beta-lactamase reporter, 18 h; 530 nm emission.
Test [7] can be described thus: qHTS assay for small molecule antagonists of glucocorticoid receptor signaling (AID 588533). The following applies: HeLa MMTV-bla, GRE beta-lactamase ratio, antagonist mode, 18 h; measured here: W530 channel AC50.
[8] abbreviates: measured here: W460 blue channel fit.

Each structure is given as a SMILES string. Values joined by “and” are separate entries in the source; they are usually repeats but may differ in a detail not shown here. Equal values may be shown once. The list shows a part of the results. Further columns of the screen follow, without active or inactive calls. Compounds called inactive in the main read-out are mostly missing here. For part of these data: The note in brackets gives the kind of curve behind each potency; many fits are weak.

As for `CC(C)CCCCCCc1ccc(OCCOCCO)cc1`, the AC50 in test [1] (setting [8]) is 50.1 µM [falling, single point]; in test [2] it was 50.1 µM [falling, single point]. Also, in test [3], the max response was -51.5%.
Turning to `C[C@]12CCC(=O)C=C1CC[C@@H]1[C@@H]2[C@@H](O)C[C@]2(C=O)[C@@H](C(=O)CO)CC[C@@H]12`, in test [1] (setting [8]), the AC50 is 25.1 µM [falling, partial curve, poor fit]. In test [4], the max response worked out at 83.5%.
For the compound `O=S(=O)(c1ccccc1)N(CC(F)(F)F)c1ccc(C(O)(C(F)(F)F)C(F)(F)F)cc1`, the AC50 in test [1] (setting [8]) was 50.1 µM [falling, partial curve, poor fit]; in test [2] it was 50.1 µM [falling, single point].
As to `Nc1nc2ccc([N+](=O)[O-])cc2s1`, the AC50 in test [1] (setting [8]) is 39.8 µM [falling, partial curve, poor fit]; in test [5], 63.1 µM [rising, single point]. In test [6], the max response was 18.3%.
Turning to `COC(=O)CSc1cc(N=c2sc(=O)n3n2CCCC3)c(F)cc1Cl`, the AC50 in test [1] (setting [8]) was 0.00316 µM [rising, full curve, poor fit]; in test [1] (measured here: W530 green channel, cytotoxicity/artifact), 50.1 µM [rising, single point]. Besides, the results for the max response in test [4], in test [6] and in test [3] were 25.1%, 19.5% and 15.6%, respectively.
Turning to `Nc1ccc2c(c1)C(=O)c1ccccc1C2=O`, the concentration at half-maximal activity (AC50) is 44.7 µM [falling, partial curve, poor fit] in test [7]; 50.1 µM [rising, single point] and 89.1 nM [falling, full curve, poor fit] in test [5]. The max response in test [4] amounted to 45.3%.
In the case of `C[Si](C)(C)Cl`, the half-maximal activity concentration (AC50) in test [1] (setting [8]) is 50.1 µM [rising, single point]. In addition, in test [4], the max response was found to be 198%.
For the compound `C=CC(=O)OCCCCCCOC(=O)C=C`, the AC50 in test [1] (setting [8]) was 50.1 µM [falling, partial curve, poor fit] and 15.8 µM [falling, full curve, poor fit]; in test [2] it was 39.8 µM [falling, partial curve, poor fit]. Moreover, the max response was -111% in test [4] and 15.9% in test [6].
Consider `CCOC(=O)COc1cc(-n2ncc(C(F)(F)F)c(C)c2=O)c(F)cc1Cl`, for which the AC50 in test [1] (setting [8]) was 0.0794 µM [rising, full curve, poor fit]. The max response in test [3] came out at 8.52%.
With `Oc1c(Cl)ccc(Cl)c1Cl`, the AC50 in test [7] is 79.4 µM [falling, single point]; in test [5] it was 11.2 µM [falling, full curve, poor fit]. The max response in test [4] came out at 43.9%.
For the compound `Nc1ccc(F)cc1F`, the AC50 in test [1] (setting [8]) was 44.7 µM [falling, single point]; in test [5], 50.1 µM [rising, single point].
Consider `Nc1c(N=Nc2ccc(S(=O)(=O)CCOS(=O)(=O)O)cc2)c(S(=O)(=O)O)cc2cc(S(=O)(=O)O)c(N=Nc3ccc(S(=O)(=O)CCOS(=O)(=O)O)cc3)c(O)c12`, for which the AC50 in test [1] (setting [8]) was 0.00126 µM [falling, full curve, poor fit]; in test [5], 0.0398 µM [falling, full curve, poor fit].
As to `CC(=O)OC(C(=O)c1ccccc1)c1ccccc1` (stereo not given), the AC50 in test [1] (setting [8]) was 70.8 µM [falling, single point]. Also, the max response in test [4] is -5.92%.
With `O=C(O)/C=C/c1ccc(/C=C/C(=O)O)cc1`, the AC50 in test [1] (setting [8]) is 0.0282 µM [falling, full curve, poor fit]; in test [5] it was 50.1 µM [rising, single point].
For the compound `Cc1ccc(S(=O)(=O)C(I)I)cc1`, the AC50 in test [1] (setting [8]) was 39.8 µM [falling, partial curve]; in test [7] it was 39.8 µM [falling, partial curve, poor fit]; in test [5] it was 39.8 µM [falling, partial curve]; in test [2], 25.1 µM [falling, full curve]. The max response is -88.2% in test [4] and -28.8% in test [3].
As to `O=C1NC(=O)c2cc([N+](=O)[O-])ccc21`, the AC50 in test [1] (setting [8]) was 50.1 µM [falling, partial curve, poor fit]; in test [5], 50.1 µM [rising, single point].
As to `O=C(OCC(COC(=O)c1ccccc1)(COC(=O)c1ccccc1)COC(=O)c1ccccc1)c1ccccc1`, the AC50 in test [7] was 39.8 µM [falling, partial curve]; in test [5], 39.8 µM [falling, partial curve, poor fit]; in test [2], 35.5 µM [falling, partial curve, poor fit]. The max response in test [4] was -75.3%; in test [6] it was -47.4%.
For the compound `O=C=Nc1ccc(Cc2ccc(N=C=O)cc2)cc1`, the AC50 in test [7] is 50.1 µM [falling, partial curve, poor fit].
Turning to `CCNc1ccccc1`, in test [1] (setting [8]), the AC50 is 0.0447 µM [falling, full curve, poor fit]. In addition, the max response in test [3] was -6.81%.
With `COC(=O)c1ccc(CNS(C)(=O)=O)cc1S(=O)(=O)NC(=O)Nc1nc(OC)cc(OC)n1`, the AC50 in test [1] (setting [8]) is 0.447 µM [falling, full curve, poor fit]. For the same compound, in test [4], the max response was -59.5%.
Take `C1CCC2OC2C1` (stereo not given): the AC50 in test [1] (setting [8]) was 50.1 µM [falling, partial curve, poor fit]; in test [5], 70.8 µM [rising, single point].
In the case of `Cc1ccc(S(=O)(=O)Oc2ccc(N=Nc3ccc(-c4ccc(N=Nc5c(O)ccc6cc(S(=O)(=O)O)cc(S(=O)(=O)O)c56)c(C)c4)cc3C)cc2)cc1`, the AC50 in test [1] (setting [8]) is 0.0501 µM [falling, full curve, poor fit]; in test [5], 14.1 µM [falling, full curve]. The max response in test [4] stood at 41.5%.

What is called AC50 is the midpoint of the concentration-response curve, whichever way the signal moves.

(Values after PubChem BioAssay (NCATS).)
